Source: publication PMC8002523
Construct, isoform or probe ends are uncertain for at least one entry.

Legend:
[1] = biological target: glycated human serum albumin (GHSA) (Homo sapiens) (UniProt P02768); test: electrochemical displacement from graphene oxide (SWV); settings: unlabeled aptamer, Binding buffer, aptamer stock 2.0 uM in sterile deionized water, ferricyanide redox probe, fluorescence ex 480 / em 520 nm, commercial protein, single-stranded DNA
[2] = biological target: glycated human serum albumin (GHSA) (Homo sapiens) (UniProt P02768); test: fluorescence recovery from graphene oxide; settings: GHSA 0.0001-5 mg/mL, Binding buffer, aptamer stock 2.0 uM in sterile deionized water, ferricyanide redox probe, fluorescence ex 480 / em 520 nm, commercial protein, label: 5'-FAM (56-FAM), single-stranded DNA

| Sequence | binding result [1] | binding result [2] |
| --- | --- | --- |
| TGCGGTTCGTGCGGTTGTAGTAC [Modified G8] | binds |  |
| TGCGGTTCGTGCGGTTGTAGTAC [Modified G8-FAM] |  | binds |
